Measurements reported in PubChem BioAssay AID686938 (Drosophila RNAi Screening Center, 2013).

- Assay: 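Looking for CRAC channel components and the factors controlling them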 (primary screen)
- Cell system: Drosophila S2R+ cells
- Knock-down reagent: long dsRNA against Drosophila genes, about 0.25 µg dsRNA per well, roughly 10,000 cells
- Timing: 5 days of knock-down before the calcium assay
- Conditions: thapsigargin (SERCA pump blocker) to empty calcium stores; entry signal taken 4 min after adding it
- Measurement: 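Per-well fluo-4 fluorescence in two replicates, unnormalised, measured in resting cells and 4 min after store depletion by the SERCA blocker thapsigargin; ratio of the two present in few wells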
- Reading the numbers: calcium entry signal: higher = stronger calcium signal after store depletion; entry to resting ratio: higher = more calcium entry relative to resting level; resting calcium signal: higher = higher resting calcium signal
- Active means: 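Called when the plate z-score of the entry-to-rest ratio, mean of duplicates, falls below −3; wells with low overall dye signal (Fmax z below −2) or more than five off-targets excluded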
- Calls: active = strongly reduced calcium entry; inactive = no strong reduction
The screen tested about 23,000 reagents; this is a random part of those that have a named target and a result. Over the whole deposit, 75 (0.33%) got an active call. 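Raw plate signals without normalisation; calls rest on plate z-scores that were not deposited; ratio present for only 364 wells.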 Entries without a mark were called inactive. The numbers tell different reagents against one gene apart. Names joined by + are all predicted targets of the reagent. No sequences are given here. Not stated in the record: the dose of the treatment.

| Target gene | reagent | calcium entry signal, replicate 1 (fluorescence units) | calcium entry signal, replicate 2 (fluorescence units) | entry to resting ratio | resting calcium signal, replicate 1 (fluorescence units) | resting calcium signal, replicate 2 (fluorescence units) |
| --- | --- | --- | --- | --- | --- | --- |
| Slu7 | 1 | 1.82e7 | 2.42e7 | – | 1.32e7 | 1.48e7 |
| CG14073 | 1 | 2.30e7 | 5.17e7 | – | 1.17e7 | 1.99e7 |
| ppk18 (pickpocket 18) | 1 | 3.35e7 | 4.89e7 | – | 1.77e7 | 2.14e7 |
| ppk18 (pickpocket 18) | 2 | 3.62e7 | 4.12e7 | – | 1.79e7 | 1.70e7 |
| unc-13 | 1 | 4.52e7 | 3.91e7 | – | 2.30e7 | 1.89e7 |
| unc-13 | 2 | 4.46e7 | 3.30e7 | – | 2.36e7 | 1.58e7 |
| unc-13 | 3 | 5.26e7 | 5.21e7 | – | 2.26e7 | 2.31e7 |
| Bbd (Bombardier) | 1 | 4.06e7 | 4.25e7 | – | 1.75e7 | 2.24e7 |
| ewg (erect wing) | 1 | 3.91e7 | 3.09e7 | 2.1 | 1.82e7 | 1.49e7 |
| Ids (Iduronate 2-sulfatase) | 1 | 3.02e7 | 3.01e7 | – | 1.45e7 | 1.38e7 |

3 consecutive records already listed, quoted:
| Target gene | reagent | calcium entry signal, replicate 1 (fluorescence units) | calcium entry signal, replicate 2 (fluorescence units) | entry to resting ratio | resting calcium signal, replicate 1 (fluorescence units) | resting calcium signal, replicate 2 (fluorescence units) |
| --- | --- | --- | --- | --- | --- | --- |
| ppk18 (pickpocket 18) | 1 | 3.35e7 | 4.89e7 | – | 1.77e7 | 2.14e7 |
| ppk18 (pickpocket 18) | 2 | 3.62e7 | 4.12e7 | – | 1.79e7 | 1.70e7 |
| unc-13 | 1 | 4.52e7 | 3.91e7 | – | 2.30e7 | 1.89e7 |

More entries follow:
| Target gene | reagent | calcium entry signal, replicate 1 (fluorescence units) | calcium entry signal, replicate 2 (fluorescence units) | entry to resting ratio | resting calcium signal, replicate 1 (fluorescence units) | resting calcium signal, replicate 2 (fluorescence units) |
| --- | --- | --- | --- | --- | --- | --- |
| CG13877 + pyx | 1 | 3.81e7 | 4.47e7 | – | 1.94e7 | 1.99e7 |
| ph-d (polyhomeotic distal) | 1 | 3.88e7 | 4.40e7 | 2.1 | 1.81e7 | 1.76e7 |
| ph-d (polyhomeotic distal) | 2 | 3.70e7 | 4.48e7 | – | 1.62e7 | 1.82e7 |
| E2f2 (E2F transcription factor 2) | 1 | 3.01e7 | – | – | 1.55e7 | – |
| CG13131 | 1 | 3.33e7 | 4.22e7 | – | 1.31e7 | 1.83e7 |
| CG13131 | 2 | 3.44e7 | 3.11e7 | – | 2.01e7 | 1.68e7 |
| CG13285 | 1 | 3.96e7 | 6.13e7 | – | 1.81e7 | 2.63e7 |
| CG2065 | 1 | 4.24e7 | 4.45e7 | – | 2.41e7 | 1.69e7 |
| CG2065 | 2 | 2.07e7 | 2.74e7 | – | 1.13e7 | 1.17e7 |
| Cyp313a5 (Cytochrome P450 313a5) | 1 | 3.61e7 | 2.61e7 | – | 1.77e7 | 1.43e7 |
| CG5902 | 1 | 2.23e7 | 2.66e7 | – | 1.14e7 | 1.15e7 |
| CG42284 | 1 | 3.91e7 | 8.45e7 | – | 1.80e7 | 3.80e7 |
| CG42284 | 2 | 3.48e7 | 5.86e7 | – | 1.68e7 | 2.92e7 |
| Mdh1 (Malate dehydrogenase 1) | 1 | 4.76e7 | 6.11e7 | – | 2.13e7 | 2.45e7 |
